These are yes or no findings as the source states them, for the method shown. In cells and extracts the contact can be indirect. Some binding calls cover weakened binding; strength is not graded here.
Columns and labels:
[1] = biological target: Flag-p66α (GATA zinc finger domain-containing protein 2A) (UniProt Q86YP4); test: co-IP; tagged proteins transiently co-expressed in HEK-293T cells; lysis in 20 mM Tris pH 7.5, 150 mM NaCl, 2.5 mM EDTA, DTT; Flag M2 beads; Western blot for the other tag
[2] = biological target: Flag-p66α (GATA zinc finger domain-containing protein 2A) (UniProt Q86YP4); test: co-IP; whole-cell lysate of HEK-293T-Flag-p66α cells; precipitated with antibody against p66α or Flag M2 beads; Western blot with monoclonal anti-p53 antibody for endogenous p53

The chains behind the UniProt entries cited, without tags or fusion partners.
UniProt Q86YP4: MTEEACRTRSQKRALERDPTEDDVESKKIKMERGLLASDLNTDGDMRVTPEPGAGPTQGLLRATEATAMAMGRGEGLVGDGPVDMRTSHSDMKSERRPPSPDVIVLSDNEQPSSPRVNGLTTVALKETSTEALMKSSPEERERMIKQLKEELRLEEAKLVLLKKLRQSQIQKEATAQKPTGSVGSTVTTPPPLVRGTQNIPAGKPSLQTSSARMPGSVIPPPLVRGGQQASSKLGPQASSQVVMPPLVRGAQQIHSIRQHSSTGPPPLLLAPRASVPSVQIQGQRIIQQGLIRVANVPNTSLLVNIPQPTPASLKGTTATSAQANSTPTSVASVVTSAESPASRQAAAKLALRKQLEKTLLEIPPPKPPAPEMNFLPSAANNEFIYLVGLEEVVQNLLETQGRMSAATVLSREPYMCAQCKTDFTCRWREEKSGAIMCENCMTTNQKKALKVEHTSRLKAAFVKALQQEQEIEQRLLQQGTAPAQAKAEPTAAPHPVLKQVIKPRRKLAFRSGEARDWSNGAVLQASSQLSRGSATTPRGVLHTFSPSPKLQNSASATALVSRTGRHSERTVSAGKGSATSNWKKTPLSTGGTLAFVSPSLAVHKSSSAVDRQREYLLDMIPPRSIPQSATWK

binding [1] | binding [2] | Substance
binds | – | GFP-p53 (from UniProt P04637 1-393)
– | binds | endogenous p53 (from UniProt P04637 1-393)

Source: publication PMC8700327
